From paper doi:10.1101/686782
No constants are given. Whether binding was seen depends on the method and setting. Binding can be weak; no strength is given.

Biological target: P. savastanoi FliP (Pseudomonas savastanoi pv. phaseolicola 1448A) (UniProt Q48GF5)
Test: cryo-EM structure

B1: P. savastanoi FliR (protein, UniProt Q48GF7 1-258)
chain: MLALTDIQISTWVASFMLPMFRIVALLMTMPVIGTTLVPRRVRLYLAFAITVVVAPALPAMPPVQALDLSGLLLIGEQIIIGAGMGLSLQMFFHIFVIAGQIISTQMGMGFASMVDPTNGVSSAVIGQFFTMLVTLLFLFMNGHLVVLEVLVESFTTMPVGGGLLVNNFWELANGLGWALSSGLRLVLPAITALLIINIAFGVMTRAAPQLNIFSIGFPLTLVLGMVILWMSMGDILNQYQPIASQALQSLRDMVRAR
With B1 the binding was “binds”.
